According to patent US20240350654A1, “NANOCARRIERS FOR TARGETED DELIVERY OF THERAPEUTICS” (Northwestern University, priority 2023, published 2024):
≈ marks a conversion by molar mass, not a printed value.

Experiments:
Format in all cases: cell-based
[1] = system: ROSA human mast cell line (FIG. 1A); test: MTT assay, ROSA mast cell line (FIG. 1A); settings: n=3, read-out: IC50 (cell viability, MTT)
[2] = system: ROSA human mast cell line (FIG. 1B); test: MTT assay, ROSA mast cell line (FIG. 1B); settings: n=2, read-out: IC50 (cell viability, MTT)
LUVA human mast cells = test: MTT assay, LUVA mast cells (FIG. 1C); settings: Mast cell, n=3, read-out: IC50 (cell viability, MTT)
[3] = system: Primary human skin mast cells; test: MTT assay, primary human skin mast cells (FIG. 1D); settings: Mast cell, n=2, read-out: IC50 (cell viability, MTT)

CO[C@@H]1[C@H](N(C)C(=O)c2ccccc2)C[C@H]2O[C@]1(C)n1c3ccccc3c3c4c(c5c6ccccc6n2c5c31)C(=O)NC4 [midostaurin]
IC50 [1]: 0.68 µg/mL (≈ 1.19 µM)
IC50 [2]: 1.37 µg/mL (≈ 2.4 µM)
IC50 (LUVA human mast cells): 4.1 µg/mL (≈ 7.18 µM)
IC50 [3]: 1.5 µg/mL (≈ 2.63 µM)
